No constants are given. Whether binding was seen depends on the method and setting. Binding seen in cells or lysates may run through a third protein. These calls come from enrichment with a bait or labelling near it, and not all partners need be listed.
Target: cyclin-dependent kinase 5 (melanocytes of the K10 experiments) (not stated (alpaca melanocytes in the results, mouse melanocytes in the methods)) (UniProt P49615)
Experiment: affinity purification with mass spectrometry; total proteins from melanocytes precleared with protein-A/G beads, anti-Cdk5 antibody overnight, protein-A/G beads 2 h; LC-ESI-Q-TOF mass spectrometry, IPI database

binding: binds
B1: Keratin 10 (protein, UniProt P02535 1-570)
chain: MSVLYSSSSKQFSSSRSGGGGGGGSVRVSSTRGSLGGGYSSGGFSGGSFSRGSSGGGCFGGSSGGYGGFGGGGSFGGGYGGSSFGGGYGGSSFGGGYGGSSFGGAGFGGGGSFGGGSFGGGSYGGGFGGGGFGGDGGSLLSGNGRVTMQNLNDRLASYMDKVRALEESNYELEGKIKEWYEKHGNSSQREPRDYSKYYKTIEDLKGQILTLTTDNANVLLQIDNARLAADDFRLKYENEVTLRQSVEADINGLRRVLDELTLSKSDLEMQIESLNEELAYLKKNHEEEMRDLQNVSTGDVNVEMNAAPGVDLTQLLNNMRNQYEQLAEKNRKDAEEWFNQKSKELTTEIDSNIEQMSSHKSEITELRRTVQGLEIELQSQLALKQSLEASLAETEGRYCVQLSQIQSQISALEEQLQQIRAETECQNAEYQQLLDIKTRLENEIQTYRSLLEGEGSSSGGGGGRRGGSGGGSYGGSSGGGSYGGSSGGGGSYGGSSGGGGSYGGGSSGGGSHGGSSGGGYGGGSSSGGAGGHGGSSGGGYGGGSSSGGQGGSGGFKSSGGGDQSSKGPRY

From publication PMC5653820
